Measurements taken from the supplement of paper PMC10849652.
The other results are listed elsewhere or left out.

The chains behind the UniProt entries cited, without tags or fusion partners. Where a name states a change or a piece, a line headed by the entry shows the natural chain unless it says otherwise.
UniProt Q86V59: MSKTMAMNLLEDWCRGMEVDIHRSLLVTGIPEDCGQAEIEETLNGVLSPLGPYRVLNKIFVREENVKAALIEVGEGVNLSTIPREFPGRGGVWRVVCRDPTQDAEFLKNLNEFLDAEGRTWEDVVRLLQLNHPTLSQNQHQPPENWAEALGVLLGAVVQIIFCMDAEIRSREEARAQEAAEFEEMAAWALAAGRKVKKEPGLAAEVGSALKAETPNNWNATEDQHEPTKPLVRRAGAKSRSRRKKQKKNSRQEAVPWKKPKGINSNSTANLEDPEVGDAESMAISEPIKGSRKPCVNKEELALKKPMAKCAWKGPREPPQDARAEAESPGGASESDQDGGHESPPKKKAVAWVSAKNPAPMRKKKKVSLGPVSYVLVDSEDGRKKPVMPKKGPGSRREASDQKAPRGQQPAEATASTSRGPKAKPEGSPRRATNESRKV
UniProt Q8NAT1: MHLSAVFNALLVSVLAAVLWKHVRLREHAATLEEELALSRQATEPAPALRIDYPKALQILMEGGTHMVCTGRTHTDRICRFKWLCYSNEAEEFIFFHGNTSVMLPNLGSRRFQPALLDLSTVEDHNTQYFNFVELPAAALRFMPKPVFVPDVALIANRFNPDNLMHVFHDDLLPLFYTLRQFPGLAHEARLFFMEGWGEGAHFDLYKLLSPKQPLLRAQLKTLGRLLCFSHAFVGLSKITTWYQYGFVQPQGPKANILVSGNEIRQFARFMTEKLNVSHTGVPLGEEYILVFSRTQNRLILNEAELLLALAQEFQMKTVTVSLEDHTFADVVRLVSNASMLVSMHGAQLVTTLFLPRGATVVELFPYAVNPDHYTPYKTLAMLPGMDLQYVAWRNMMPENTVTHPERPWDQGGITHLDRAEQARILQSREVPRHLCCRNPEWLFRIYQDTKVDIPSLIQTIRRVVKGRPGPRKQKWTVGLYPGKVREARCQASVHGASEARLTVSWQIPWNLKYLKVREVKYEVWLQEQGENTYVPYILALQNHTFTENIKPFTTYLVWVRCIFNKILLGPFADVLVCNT
UniProt Q6T4P5: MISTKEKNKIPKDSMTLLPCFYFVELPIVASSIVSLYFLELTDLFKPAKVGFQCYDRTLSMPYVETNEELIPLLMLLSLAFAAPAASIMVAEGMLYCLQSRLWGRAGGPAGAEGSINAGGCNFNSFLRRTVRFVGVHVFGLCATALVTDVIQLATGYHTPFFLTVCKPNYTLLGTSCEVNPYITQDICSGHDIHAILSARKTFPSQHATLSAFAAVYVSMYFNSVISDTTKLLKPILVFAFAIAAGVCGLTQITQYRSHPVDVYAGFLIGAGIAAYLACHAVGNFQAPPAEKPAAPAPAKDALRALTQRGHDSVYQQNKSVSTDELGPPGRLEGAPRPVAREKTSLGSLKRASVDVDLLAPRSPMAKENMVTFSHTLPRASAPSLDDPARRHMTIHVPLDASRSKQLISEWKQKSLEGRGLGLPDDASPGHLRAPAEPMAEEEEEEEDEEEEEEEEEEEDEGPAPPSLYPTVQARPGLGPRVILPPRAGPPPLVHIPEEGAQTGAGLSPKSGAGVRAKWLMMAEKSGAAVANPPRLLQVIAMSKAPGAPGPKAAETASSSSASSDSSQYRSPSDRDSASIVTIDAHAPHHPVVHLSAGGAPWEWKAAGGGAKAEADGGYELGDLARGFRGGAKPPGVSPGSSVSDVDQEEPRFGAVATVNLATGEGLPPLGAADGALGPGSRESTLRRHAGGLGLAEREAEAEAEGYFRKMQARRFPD
UniProt Q8NBT0: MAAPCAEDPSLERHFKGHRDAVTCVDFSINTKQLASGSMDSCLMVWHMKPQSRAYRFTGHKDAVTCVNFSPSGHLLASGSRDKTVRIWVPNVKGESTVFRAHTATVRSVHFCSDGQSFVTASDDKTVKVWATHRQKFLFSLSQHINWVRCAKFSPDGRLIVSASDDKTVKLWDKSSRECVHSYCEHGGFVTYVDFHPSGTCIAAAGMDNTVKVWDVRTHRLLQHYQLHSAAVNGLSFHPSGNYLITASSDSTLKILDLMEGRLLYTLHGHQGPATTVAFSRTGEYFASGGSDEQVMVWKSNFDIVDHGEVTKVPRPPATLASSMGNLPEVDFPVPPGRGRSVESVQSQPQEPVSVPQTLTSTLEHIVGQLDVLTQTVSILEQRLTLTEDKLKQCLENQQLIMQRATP
UniProt P55058, whole entry, looked up: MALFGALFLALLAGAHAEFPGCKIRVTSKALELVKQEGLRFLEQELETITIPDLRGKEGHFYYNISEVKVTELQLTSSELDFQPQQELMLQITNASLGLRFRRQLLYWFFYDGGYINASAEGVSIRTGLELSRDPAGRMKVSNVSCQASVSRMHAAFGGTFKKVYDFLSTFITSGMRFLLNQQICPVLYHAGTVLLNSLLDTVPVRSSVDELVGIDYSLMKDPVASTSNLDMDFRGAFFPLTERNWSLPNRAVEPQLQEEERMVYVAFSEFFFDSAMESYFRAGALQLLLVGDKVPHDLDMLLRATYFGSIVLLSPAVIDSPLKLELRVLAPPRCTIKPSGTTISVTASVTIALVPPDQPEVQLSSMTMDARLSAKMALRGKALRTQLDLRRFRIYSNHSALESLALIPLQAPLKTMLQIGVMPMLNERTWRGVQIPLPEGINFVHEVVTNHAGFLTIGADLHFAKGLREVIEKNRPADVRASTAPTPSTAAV
UniProt O00469: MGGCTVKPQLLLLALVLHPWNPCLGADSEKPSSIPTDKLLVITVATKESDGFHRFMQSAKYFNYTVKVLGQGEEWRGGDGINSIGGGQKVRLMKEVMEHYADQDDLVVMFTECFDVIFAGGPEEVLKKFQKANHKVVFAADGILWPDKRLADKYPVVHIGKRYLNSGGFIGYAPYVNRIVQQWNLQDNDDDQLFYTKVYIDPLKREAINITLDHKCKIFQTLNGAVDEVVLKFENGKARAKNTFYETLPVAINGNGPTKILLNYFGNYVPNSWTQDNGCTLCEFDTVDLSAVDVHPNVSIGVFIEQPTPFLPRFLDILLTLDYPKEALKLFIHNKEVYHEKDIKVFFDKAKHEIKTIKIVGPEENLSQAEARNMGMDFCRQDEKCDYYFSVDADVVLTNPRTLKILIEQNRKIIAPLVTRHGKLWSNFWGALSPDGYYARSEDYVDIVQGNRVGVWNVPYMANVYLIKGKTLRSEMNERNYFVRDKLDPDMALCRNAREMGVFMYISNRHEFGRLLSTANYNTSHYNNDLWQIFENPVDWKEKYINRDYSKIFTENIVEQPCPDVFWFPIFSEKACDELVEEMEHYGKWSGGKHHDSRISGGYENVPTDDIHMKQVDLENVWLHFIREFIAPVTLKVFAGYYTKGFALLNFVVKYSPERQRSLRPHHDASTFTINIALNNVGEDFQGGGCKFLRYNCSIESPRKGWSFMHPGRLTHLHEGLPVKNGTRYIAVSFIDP
UniProt Q9Y6A1: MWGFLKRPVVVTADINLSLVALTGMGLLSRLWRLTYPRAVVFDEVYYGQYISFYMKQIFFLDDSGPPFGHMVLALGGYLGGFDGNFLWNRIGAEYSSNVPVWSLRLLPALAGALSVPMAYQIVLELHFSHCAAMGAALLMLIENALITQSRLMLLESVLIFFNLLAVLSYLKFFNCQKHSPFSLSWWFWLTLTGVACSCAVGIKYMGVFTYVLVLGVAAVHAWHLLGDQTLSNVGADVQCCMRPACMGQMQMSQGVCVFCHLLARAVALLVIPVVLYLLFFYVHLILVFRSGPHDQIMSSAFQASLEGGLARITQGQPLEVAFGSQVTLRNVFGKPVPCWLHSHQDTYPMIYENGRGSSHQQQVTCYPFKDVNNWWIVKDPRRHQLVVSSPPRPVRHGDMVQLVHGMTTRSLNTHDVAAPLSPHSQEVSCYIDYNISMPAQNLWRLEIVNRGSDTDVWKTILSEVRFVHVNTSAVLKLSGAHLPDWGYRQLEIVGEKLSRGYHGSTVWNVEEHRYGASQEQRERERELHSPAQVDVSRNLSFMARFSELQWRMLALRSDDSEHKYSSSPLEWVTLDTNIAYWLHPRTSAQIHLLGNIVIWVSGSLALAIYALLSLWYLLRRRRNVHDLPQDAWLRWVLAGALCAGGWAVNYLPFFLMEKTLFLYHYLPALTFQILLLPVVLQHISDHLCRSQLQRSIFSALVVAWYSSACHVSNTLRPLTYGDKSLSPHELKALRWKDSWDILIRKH
UniProt Q9HCU8: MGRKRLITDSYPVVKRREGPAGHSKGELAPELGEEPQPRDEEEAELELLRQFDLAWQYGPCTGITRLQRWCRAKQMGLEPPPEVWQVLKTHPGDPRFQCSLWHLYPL
UniProt Q9Y4G2: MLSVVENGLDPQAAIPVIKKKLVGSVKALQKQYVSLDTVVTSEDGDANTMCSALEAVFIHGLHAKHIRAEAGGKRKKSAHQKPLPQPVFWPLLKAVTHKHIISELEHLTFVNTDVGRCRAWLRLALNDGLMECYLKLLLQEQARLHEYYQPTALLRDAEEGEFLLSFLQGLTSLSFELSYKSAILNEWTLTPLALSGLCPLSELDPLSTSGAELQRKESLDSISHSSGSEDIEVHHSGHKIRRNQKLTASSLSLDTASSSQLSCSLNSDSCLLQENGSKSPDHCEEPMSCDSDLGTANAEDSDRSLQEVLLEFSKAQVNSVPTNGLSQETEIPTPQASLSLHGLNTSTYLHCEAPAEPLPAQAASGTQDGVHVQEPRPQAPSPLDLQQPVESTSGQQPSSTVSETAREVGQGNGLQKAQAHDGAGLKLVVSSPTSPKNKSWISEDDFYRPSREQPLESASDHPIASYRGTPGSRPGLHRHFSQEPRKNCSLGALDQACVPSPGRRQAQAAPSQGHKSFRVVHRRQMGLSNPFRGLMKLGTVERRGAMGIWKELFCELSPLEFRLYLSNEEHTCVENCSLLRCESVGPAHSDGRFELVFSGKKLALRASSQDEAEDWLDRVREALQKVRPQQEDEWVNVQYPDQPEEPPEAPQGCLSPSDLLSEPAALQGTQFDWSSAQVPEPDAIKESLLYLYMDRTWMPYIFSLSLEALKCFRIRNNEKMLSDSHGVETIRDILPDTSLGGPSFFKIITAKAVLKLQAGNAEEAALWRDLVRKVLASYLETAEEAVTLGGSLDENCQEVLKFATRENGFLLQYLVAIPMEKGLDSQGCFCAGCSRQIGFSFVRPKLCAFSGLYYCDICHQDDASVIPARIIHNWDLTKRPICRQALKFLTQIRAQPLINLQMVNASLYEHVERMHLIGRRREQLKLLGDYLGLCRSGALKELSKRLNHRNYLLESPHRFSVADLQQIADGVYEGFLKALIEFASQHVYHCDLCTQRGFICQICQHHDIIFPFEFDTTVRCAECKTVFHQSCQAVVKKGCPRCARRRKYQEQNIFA
UniProt Q8IYS1: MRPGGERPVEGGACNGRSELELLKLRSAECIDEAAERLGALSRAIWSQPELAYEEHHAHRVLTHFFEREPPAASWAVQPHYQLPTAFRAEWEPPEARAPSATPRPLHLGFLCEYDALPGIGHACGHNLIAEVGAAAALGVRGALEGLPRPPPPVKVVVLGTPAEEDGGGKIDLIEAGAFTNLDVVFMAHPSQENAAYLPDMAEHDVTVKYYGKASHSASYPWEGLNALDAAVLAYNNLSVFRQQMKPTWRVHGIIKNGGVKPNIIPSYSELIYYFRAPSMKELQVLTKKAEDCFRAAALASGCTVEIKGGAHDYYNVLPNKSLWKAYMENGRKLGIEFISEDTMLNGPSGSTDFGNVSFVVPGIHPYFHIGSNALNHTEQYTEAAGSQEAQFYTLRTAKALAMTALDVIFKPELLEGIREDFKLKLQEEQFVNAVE
UniProt Q8TC44: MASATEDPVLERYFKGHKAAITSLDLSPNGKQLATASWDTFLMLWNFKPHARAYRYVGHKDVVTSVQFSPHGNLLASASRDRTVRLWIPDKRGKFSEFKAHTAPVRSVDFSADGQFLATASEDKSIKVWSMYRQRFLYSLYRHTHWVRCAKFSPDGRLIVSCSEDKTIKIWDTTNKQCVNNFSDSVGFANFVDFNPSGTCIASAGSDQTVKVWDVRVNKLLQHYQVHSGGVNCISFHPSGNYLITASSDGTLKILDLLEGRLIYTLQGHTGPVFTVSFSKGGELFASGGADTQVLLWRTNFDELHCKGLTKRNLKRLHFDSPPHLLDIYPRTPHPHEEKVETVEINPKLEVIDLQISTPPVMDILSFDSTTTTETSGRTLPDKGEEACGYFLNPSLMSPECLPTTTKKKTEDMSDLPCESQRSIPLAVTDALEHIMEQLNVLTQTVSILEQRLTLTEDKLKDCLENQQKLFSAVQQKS
UniProt P62937, whole entry, looked up: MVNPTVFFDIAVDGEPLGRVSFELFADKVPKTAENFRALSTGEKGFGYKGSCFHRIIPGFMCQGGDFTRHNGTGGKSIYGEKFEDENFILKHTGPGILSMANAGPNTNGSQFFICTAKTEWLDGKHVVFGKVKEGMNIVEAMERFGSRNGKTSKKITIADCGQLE
UniProt Q9HBL7: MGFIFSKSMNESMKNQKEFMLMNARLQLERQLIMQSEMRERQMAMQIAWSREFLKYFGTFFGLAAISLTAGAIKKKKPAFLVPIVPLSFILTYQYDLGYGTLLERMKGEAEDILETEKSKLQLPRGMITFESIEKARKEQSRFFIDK

Columns and labels:
Test in all cases: log2 fold change, soluble protein after heating vs DMSO (PISA); higher = thermal stabilisation; K562 lysate, 10 uM; active = over 0.2 and 3.5 SD of the protein, either way, in both replicates (recomputed)
[1] = compound: CS(=O)(=O)CCNCc1ccc(-c2ccc3ncnc(Nc4ccc(OCc5cccc(F)c5)c(Cl)c4)c3c2)o1 [lapatinib]
Method in brief: (§1)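 K562 pellets were dounce-homogenised in PBS pH 7.4 with 1 mM MgCl2, and the crude extract at 1 mg/mL protein was treated with 10 μM compound for 30 min. Aliquots were heated for 3 min across 48°C-58°C, pooled, and brought to 0.5% NP-40 at 4°C; soluble protein was the supernatant after 21,000xg for 90 min. Soluble protein was quantified by TMTpro 16plex LC-MS/MS with channel sums equalised, and reported as log2 fold change in thermal stability against DMSO controls, with values from duplicates.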

[2] = compound: CS(=O)(=O)N1CCN(Cc2cc3nc(-c4cccc5[nH]ncc45)nc(N4CCOCC4)c3s2)CC1 [pictilisib]
Method in brief: as §1

[3] = compound: C[C@H](Nc1ncnc2nc[nH]c12)c1cc2cccc(Cl)c2c(=O)n1-c1ccccc1 [duvelisib]
Method in brief: as §1

[4] = compound: Cc1cc(Nc2cc(N3CCN(C)CC3)nc(Sc3ccc(NC(=O)C4CC4)cc3)n2)n[nH]1 [tozasertib]
Method in brief: as §1

[5] = compound: Cc1ccc(NC(=O)c2ccc(CN3CC[C@H](N(C)C)C3)c(C(F)(F)F)c2)cc1Nc1nccc(-c2cncnc2)n1 [bafetinib]
Method in brief: as §1

[6] = compound: C[C@@H](Oc1cc(-c2cnn(C3CCNCC3)c2)cnc1N)c1c(Cl)ccc(F)c1Cl [crizotinib]
Method in brief: as §1

[7] = compound: C[C@H](C1=CC=C(C=C1)C(=O)NC2=C3C=CNC3=NC=C2)N
Method in brief: as §1

[8] = compound: Cc1cc(Nc2cc(CN3CCOCC3)c3nc(C)c(Cc4ccc(Cl)cc4F)n3n2)n[nH]1 [gandotinib]
Method in brief: as §1

[9] = compound: Cc1ccc(-n2nc(C(C)(C)C)cc2NC(=O)Nc2ccc(OCCN3CCOCC3)c3ccccc23)cc1 [doramapimod]
Method in brief: as §1

[10] = compound: Cc1cccc(CC(=O)N2CCc3c2ccc(-c2cn(C)c4ncnc(N)c24)c3F)n1
Method in brief: as §1

Measured: log2 fold change

PNMA8A (UniProt Q86V59)
inactive: [1] -0.166 | [2] -0.033 | [3] 0.054 | [4] 0.05 | [5] 0.1

POLR2K (UniProt P53803)
inactive: [2] 0.02 | [6] 0.052 | [7] -0.048 | [3] 0.001 | [8] -0.04 | [4] 0.122 | [9] 0.129 | [5] 0.018 | [10] -0.095

POLR2F (UniProt U3KPV3)
inactive: [3] 0.012 | [4] 0.109

PPIC (UniProt P45877)
inactive: [2] -0.003 | [6] -0.131 | [7] -0.078 | [3] -0.095 | [8] -0.042 | [9] 0.086 | [5] -0.061 | [10] 0.079

PMM1 (UniProt Q92871)
inactive: [2] -0.084 | [6] -0.043 | [7] -0.13 | [3] 0.057 | [8] -0.008 | [4] 0.005 | [9] 0.048 | [5] -0.028 | [10] 0.065

PPFIBP1 (UniProt Q86W92)
inactive: [6] -0.038 | [4] 0.146 | [9] -0.043

PPFIBP2 (UniProt Q8ND30)
inactive: [7] -0.049 | [8] 0.168 | [4] -0.13 | [10] -0.15

POMGNT2 (UniProt Q8NAT1)
inactive: [1] -0.049 | [6] 0.029 | [7] -0.02 | [3] -0.053 | [8] 0.052 | [4] -0.137 | [9] 0.015 | [10] -0.102

POF1B isoform 1 (UniProt Q8WVV4)
inactive: [7] 0.645 | [3] 0.013 | [8] 0.653 | [10] -0.172

POMK (UniProt Q9H5K3)
inactive: [2] -0.138 | [6] -0.03 | [7] 0.061 | [3] -0.007 | [8] -0.11 | [4] -0.018 | [9] 0 | [5] -0.022 | [10] -0.009

PLPPR3 isoform 3 (UniProt Q6T4P5)
inactive: [3] -0.089

PLEKHG4 (UniProt Q58EX7)
inactive: [6] -0.054 | [7] 0.064 | [3] 0.095 | [8] -0.014 | [4] 0.045 | [9] -0.014 | [10] -0.11

PNPLA4 (UniProt P41247)
active: [9] 0.825
inactive: [6] -0.098 | [7] 0.121 | [3] 0.021 | [8] -0.019 | [4] -0.011 | [10] -0.138

POGZ (UniProt Q7Z3K3)
inactive: [1] 0.087 | [6] 0.006 | [7] -0.281 | [3] 0.07 | [8] 0.052 | [4] 0.004 | [9] -0.002 | [10] 0.126

POC1A (UniProt Q8NBT0)
inactive: [1] -0.082 | [6] 0.125 | [7] -0.084 | [8] -0.097 | [4] 0.045 | [9] 0.153 | [10] -0.152

PLTP (UniProt P55058)
inactive: [7] 0.055 | [3] 0.045 | [8] -0.456 | [10] -0.61

PLPP6 (UniProt Q8IY26)
inactive: [6] 0.028 | [7] 0.053 | [3] -0.028 | [8] -0.07 | [9] 0.04 | [10] 0.012

PLOD2 isoform 2 (UniProt O00469)
inactive: [2] 0.073 | [3] -0.295 | [4] 0.221 | [5] -0.093

PPHLN1 (UniProt Q8NEY8)
inactive: [1] 0.011 | [6] -0.023 | [7] -0.016 | [8] 0.013 | [4] 0.028 | [9] 0.216 | [10] 0.059

POMT1 (UniProt Q9Y6A1)
inactive: [1] -0.142 | [3] -0.057

POLK (UniProt Q9UBT6)
inactive: [1] -0.281 | [2] 0.194 | [5] 0.126

PMS1 (UniProt P54277)
inactive: [2] -0.028 | [6] -0.004 | [7] 0.018 | [3] 0.018 | [8] -0.063 | [4] -0.053 | [9] -0.03 | [5] -0.064 | [10] -0.013

PLEKHJ1 (UniProt Q9NW61)
inactive: [6] -0.048 | [7] -0.031 | [8] -0.101 | [9] 0.031 | [10] 0.066

POLG2 (UniProt J3KRM2)
inactive: [1] -0.167 | [2] -0.115 | [5] -0.225

POLI (UniProt Q9UNA4)
inactive: [6] -0.368 | [9] -0.04

POLD4 (UniProt Q9HCU8)
inactive: [1] 0.014 | [6] 0.004 | [3] 0.046 | [4] 0.053 | [9] -0.152

PLEKHM1 (UniProt Q9Y4G2)
inactive: [6] 0.026 | [4] 0.071 | [9] -0.093

PLXNB1 (UniProt O43157)
inactive: [6] -0.027 | [3] -0.007 | [9] -0.053

PLEKHH2 (UniProt E5RGK1)
inactive: [1] 0.04 | [6] -0.052 | [7] 0.049 | [3] -0.049 | [8] -0.133 | [4] -0.066 | [9] 0.031 | [10] 0.059

PM20D2 (UniProt Q8IYS1)
inactive: [1] 0.047 | [2] -0.395 | [4] 0.08 | [5] -0.037

POC1B (UniProt Q8TC44)
inactive: [3] -0.076 | [4] -0.109

PPIA isoform 2 (UniProt P62937)
inactive: [2] 0 | [5] 0.218

PLGRKT (UniProt Q9HBL7)
inactive: [2] -0.042 | [6] -0.136 | [3] 0.203 | [4] 0.065 | [9] -0.009 | [5] -0.095

PLSCR3 (UniProt Q9NRY6)
inactive: [1] -0.036 | [6] 0.086 | [7] 0.045 | [3] 0.117 | [8] -0.015 | [4] -0.439 | [9] 0.048 | [10] -0.085

Fetched one by one from the list above (2):
POLI (UniProt Q9UNA4)
inactive: [6] -0.368 | [9] -0.04

POC1B (UniProt Q8TC44)
inactive: [3] -0.076 | [4] -0.109

(next part)

PLXND1 (UniProt Q9Y4D7)
active: [5] -0.461
inactive: [2] 0.018 | [6] 0.067 | [3] -0.031 | [9] 0.171
